# Measured values as given in PubChem BioAssay AID540276 (National Center for Advancing Translational Sciences (NCATS), 2011).
# Among all 300,000 compounds or so, about 5,400 (1.8%) were called active. Inconclusive results, whose numbers are uncertain, are shown with a selection of clear calls. Calls follow the shape of the full dose curve; tested in HEK293 cells. Potencies of inconclusive entries are doubtful fits and often do not repeat.
# Assay: qHTS for inhibitors of binding or entry into cells for Marburg Virus
# Conditions: Marburg virus pseudotyped entry inhibition, cell reporter; activity change, negative = inhibition: at 37.8 µM (top of the series) unless noted
# % is scaled to controls: 0 for no effect and ±100 for the full control effect; potency is read from the fitted curve at half-maximal effect.
Compound,Potency,"activity change, negative = inhibition"
CCCCc1ccc(NC(=S)N2CCN(C(=O)c3ccco3)CC2)cc1,inactive,
O=C(COc1ccc([N+](=O)[O-])cc1Cl)N(C1CCCCC1)C1CCS(=O)(=O)C1 (stereo not given),"inconclusive: 35.5 µM [inhibitor, single point]",
CS(=O)(=O)N1CCC(C(=O)N2CCN(c3ccc(F)cc3)CC2)CC1,"inconclusive: 0.794 µM [activator, full curve]",
O=C(Cn1cnc2ccccc2c1=O)Nc1ccc2c(c1)OCCO2,"inconclusive: 9.2 µM [activator, partial curve, poor fit]",
CC1CCN(Cc2c(C(=O)N/N=C/c3ccccc3O)nnn2-c2nonc2N)CC1,active: 3.16 µM,
Cc1nn(-c2ccccc2)c2[nH]c(=O)c(CNc3ccc(N4CCOCC4)cc3)cc12,"inconclusive: 35.5 µM [inhibitor, single point]",
CC(=O)Nc1ccc(C=NNc2ccc(S(=O)(=O)Nc3ccccc3C(=O)O)cc2[N+](=O)[O-])cc1,"inconclusive: 10 µM [activator, single point]",
COc1ccc(N2C(N)=NC(N)=NC23CCCC3)cc1,"inconclusive: 3.16 µM [activator, partial curve]",
O=C(CSc1ccc2c(c1)OCCO2)Nc1ccc(Br)cc1,inactive,
OC(C#Cc1ccccc1)(c1ccccc1)c1ccccc1,"inconclusive: 10 µM [inhibitor, partial curve, poor fit]",
O=C(Nc1nc2c(s1)CCCC2)c1cc2n(n1)C(C(F)(F)F)CC(C1CC1)N2 (stereo not given),"inconclusive: 12.6 µM [inhibitor, single point]",
O=C(Nc1nnc(-c2ccccc2Cl)o1)c1ccc(S(=O)(=O)N2CCCCCC2)cc1,"inconclusive: 5.62 µM [inhibitor, partial curve, poor fit]",
CC(/C=C\C=C\c1ccccc1)=N\NC(=O)c1cncc(Br)c1,"inconclusive: 10 µM [inhibitor, partial curve, poor fit]",
O=C(CSc1nnc(CCCN2C(=O)c3cccc4cccc(c34)C2=O)n1-c1ccccc1)NCCCN1CCOCC1,"inconclusive: 1.26 µM [inhibitor, single point]",
Cc1cccc(C2c3[nH]c4ccccc4c3CCN2Cc2ccc(C)s2)n1 (stereo not given),"inconclusive: 1 µM [inhibitor, full curve, poor fit]",
O=C(N/N=C/c1ccc[nH]1)c1ccccc1O,inactive,
O=S(=O)(NCC(c1ccccc1)N1CCNCC1)c1ccc(Cl)cc1 (stereo not given),"inconclusive: 29.1 µM [inhibitor, single point]",
O=C(CN1C(=O)c2ccccc2C1=O)NC1(C(=O)O)CCCC1,"inconclusive: 6.31 µM [activator, single point]",
CC(C)C(=O)N1CCN(c2ccc(NC(=S)NC(=O)c3cc4ccccc4o3)cc2)CC1,"inconclusive: 0.501 µM [inhibitor, single point]",
CCCCN(C)CC(O)Cn1cc(/C=C/C(=O)c2ccc(Br)cc2)c2ccccc21 (stereo not given),"inconclusive: 35.5 µM [inhibitor, single point]",
CC(=O)c1cccc(NC(=O)c2sc(-n3nc(C)c(Cc4ccccc4)c3C)nc2C)c1,inactive,
CCC(Cc1ccccc1)NC(=O)Cn1nc(C)n2c(cc3occc32)c1=O (stereo not given),,inconclusive: 7.11% [activator] [at 46.1 µM]

# Part of the list above in order of heavy-atom count, falling:
Compound,Potency,"activity change, negative = inhibition"
CC(=O)Nc1ccc(C=NNc2ccc(S(=O)(=O)Nc3ccccc3C(=O)O)cc2[N+](=O)[O-])cc1,"inconclusive: 10 µM [activator, single point]",
Cc1cccc(C2c3[nH]c4ccccc4c3CCN2Cc2ccc(C)s2)n1 (stereo not given),"inconclusive: 1 µM [inhibitor, full curve, poor fit]",
COc1ccc(N2C(N)=NC(N)=NC23CCCC3)cc1,"inconclusive: 3.16 µM [activator, partial curve]",

# Additional compounds follow:

Compound,Potency,"activity change, negative = inhibition"
Cc1cccc(NC(=S)NC(=O)c2oc3ccccc3c2C)n1,"inconclusive: 3.55 µM [activator, partial curve, poor fit]",
CC(C)C(C(=O)Nc1ccc(S(N)(=O)=O)cc1)N1C(=O)c2ccccc2C1=O (stereo not given),inactive,
CC(NC(=O)c1ccc([N+](=O)[O-])cc1Cl)C1CC2CCC1C2 (stereo not given),inactive,
CCCCCCCCC(=O)NCCOc1ccccc1,"inconclusive: 17.8 µM [activator, single point]",
CCOc1cc(/C=N\Nc2nc(Nc3ccccc3)nc(N3CCOCC3)n2)ccc1OC(=O)c1ccco1,active: 3.26 µM,
CCOc1cc(C)ccc1OCc1nnc(SCC(=O)c2cccc([N+](=O)[O-])c2)n1CC,"inconclusive: 18.3 µM [inhibitor, single point]",
CN(CCOc1ccccc1)C(=O)C1CCC(=O)N(CCc2ccc(Cl)cc2)C1 (stereo not given),"inconclusive: 14.1 µM [inhibitor, single point]",
O=C(CCCNC(=O)c1ccc(Cl)cc1)Nc1ccc(Br)cc1,"inconclusive: 35.5 µM [inhibitor, single point]",
CCOC(=O)Cc1c(C)nc2c(-c3ccccc3)c(C)[nH]n2c1=O,"inconclusive: 0.082 µM [inhibitor, partial curve, poor fit]",
Cc1ccc(-c2cc(C(=O)Nc3nccs3)c3ccccc3n2)c(C)c1,"inconclusive: 35.5 µM [inhibitor, single point]",
Oc1ccc(/C=N/N=C(c2ccccc2)c2ccccc2)c(O)c1O,"inconclusive: 25.1 µM [inhibitor, single point]",
Cc1occc1C(=O)O/N=C(\N)c1ccccc1,"inconclusive: 14.1 µM [inhibitor, single point]",
CCC(C)(C)C(=O)Nc1ccc(C(N)=O)cc1,"inconclusive: 0.316 µM [activator, partial curve, poor fit]",
COc1ccc(CCN=C(N)NS(=O)(=O)c2ccc(C)c(C)c2)cc1,"inconclusive: 35.5 µM [inhibitor, single point]",
O=C(NC1CCCCC1)C(c1cccs1)N(C(=O)c1ccco1)c1ccc2c(c1)OCCO2 (stereo not given),"inconclusive: 1.12 µM [inhibitor, full curve, poor fit]",
NC(=O)CSc1ncnc2c1nnn2Cc1ccc(F)cc1,"inconclusive: 8.91 µM [inhibitor, partial curve, poor fit]",
OCCC1CN(Cc2cccc(OC3CCCC3)c2)CCN1Cc1ccsc1 (stereo not given),"inconclusive: 11.2 µM [inhibitor, partial curve, poor fit]",
CC(C)C(=O)NS(=O)(=O)c1ccc(N)cc1,"inconclusive: 0.794 µM [inhibitor, single point]",
COc1ccc(-c2noc(CSc3ccccc3)n2)cc1OC,inactive,
Cc1cccc(CSc2nnc(-c3cccs3)n2Cc2ccco2)c1,"inconclusive: 5.8 µM [inhibitor, partial curve, poor fit]",
Cc1cc(C)cc(-n2c(SCC(=O)Nc3ccccc3)nc3c(oc4ccccc43)c2=O)c1,"inconclusive: 1 µM [inhibitor, full curve, poor fit]",
N#Cc1c(C(F)(F)F)cc(-c2ccccc2)nc1SCCN1CCOCC1,"inconclusive: 14.6 µM [inhibitor, partial curve]",

# Some of the entries so far, with bars between the fields:
Compound | Potency | activity change, negative = inhibition
CC(NC(=O)c1ccc([N+](=O)[O-])cc1Cl)C1CC2CCC1C2 (stereo not given) | inactive | 
CCCCCCCCC(=O)NCCOc1ccccc1 | inconclusive: 17.8 µM [activator, single point] | 

# (next part)

Compound,Potency,"activity change, negative = inhibition"
CCCCn1c(=O)c(C(=O)Nc2ccccc2Cl)c(O)c2ccccc21,"inconclusive: 35.5 µM [activator, single point]",
CC(=O)[C@@]1(O)C(C)CC2C3C=C(C)C4=Cc5c(cnn5-c5ccccc5)C[C@]4(C)C3C(O)C[C@@]21C (stereo not given in full),active: 7.94 µM,
COc1cccc(CN(C(=O)c2ccccc2)C2CCS(=O)(=O)C2)c1 (stereo not given),inactive,
CCOc1ccc(NC2=CC(=O)C(=O)c3ccccc32)cc1,"inconclusive: 11.2 µM [inhibitor, partial curve, poor fit]",
CC1CN(C(=O)c2ccncc2)CC(C)O1 (stereo not given),inactive,
CC(NC(=O)COC(=O)c1ccc(N(C)C)cc1)c1ccccc1 (stereo not given),"inconclusive: 10 µM [inhibitor, single point]",
COc1ccc(-c2nc3cc(NC(=S)NC(=O)Cc4ccccc4)ccc3o2)cc1,"inconclusive: 18.4 µM [activator, partial curve, poor fit]",
O=C(Nc1cc(N2CCOCC2)ncn1)NC1(C(F)(F)F)Oc2ccccc2O1,"inconclusive: 0.92 µM [inhibitor, full curve, poor fit]",
CC(C(=O)NCCc1ccc(F)cc1)N1CCN(Cc2ccccc2)CC1 (stereo not given),"inconclusive: 15.8 µM [inhibitor, single point]",
CCn1c(SCC(=O)Nc2cccc(C)c2)nc2ccccc2c1=O,"inconclusive: 35.5 µM [inhibitor, single point]",
O=P(Nc1ccccc1)(Nc1ccccc1)c1ccccc1,"inconclusive: 12.6 µM [inhibitor, partial curve, poor fit]",
COc1cc(CNC(C)C23CC4CC(CC(C4)C2)C3)ccc1OCC(=O)NC(C)(C)C (stereo not given),active: 6.31 µM,
CCN1C(C(=O)c2ccccc2)=C(OC(=O)COc2ccc(C)cc2)c2ccccc2S1(=O)=O,"inconclusive: 4.47 µM [activator, single point]",
O=C(CSc1ccc2nnc(-c3ccccn3)n2n1)Nc1cccc(F)c1,"inconclusive: 7.08 µM [activator, partial curve, poor fit]",
O=C(/C=C/c1ccc(Cl)cc1)NC(=S)Nc1ccc(CN2CCOCC2)cc1,inactive,
Cc1ccc(CNC(=O)CSc2nc3c(sc4ccccc43)c(=O)n2CCCC(=O)NCCO)cc1,inactive,
CCOC(=O)C1=NN(c2ccccc2)C2(S1)SC(C(C)=O)=C(C)N2c1ccccc1 (stereo not given),"inconclusive: 10.3 µM [inhibitor, single point]",
COc1ccc2nc(/N=C\N(C)C)sc2c1,inactive,
COc1cccc(CN(C)C(c2ccccc2)c2ccccc2)c1OC,"inconclusive: 11.2 µM [inhibitor, single point]",
Cc1cc(Br)cc(C)c1NC(=O)c1ccc(C#N)cc1F,inactive,
COc1ccc(NC(=O)C(NC(=O)c2ccc(=O)[nH]c2)c2ccc(OC)cc2)cc1 (stereo not given),"inconclusive: 18.4 µM [activator, partial curve, poor fit]",
